Results published in patent US7790673.
Residue numbers refer to the chain shown, from its start. Names may count otherwise. These are yes or no findings as the source states them, for the method shown. Blank lines part the entries; values can stand above or below the binder they belong to.

Target: GST protein without the Aβ sequence
Assay: GST pull-down from HEK293 culture media, immunoblot with anti-cystatin C antibody

binding: no binding
B1: wild type human cystatin C (protein, UniProt P01034 27-146, looked up)
chain: SSPGKPPRLVGGPMDASVEEEGVRRALDFAVGEYNKASNDMYHSRALQVVRARKQIVAGVNYFLDVELGRTTCTKTQPNLDNCPFHDQPHLKRKAFCSFQIYAVPWQGTMTLSKSTCQDA

binding: no binding
B2: variant human cystatin C (L68Q, HCHWA-I variant) (protein, UniProt P01034 27-146, looked up)
chain: B1 chain with L68Q
